The target of assay [1] is HDAC3 (Homo sapiens, UniProt O15379). Kind of assay: Biochemical profiling for HDACi activity, miniaturized assay platform (HDAC1-9). How it is done:
(§1) The pyridyl derivatives were also tested in the 797 and 10326 NUT midline carcinoma cell lines.

By UniProt entry, the sequences of proteins in these tests, tags left out. Where a name states a change or a piece, a line headed by the entry shows the natural chain unless it says otherwise.
UniProt O15379: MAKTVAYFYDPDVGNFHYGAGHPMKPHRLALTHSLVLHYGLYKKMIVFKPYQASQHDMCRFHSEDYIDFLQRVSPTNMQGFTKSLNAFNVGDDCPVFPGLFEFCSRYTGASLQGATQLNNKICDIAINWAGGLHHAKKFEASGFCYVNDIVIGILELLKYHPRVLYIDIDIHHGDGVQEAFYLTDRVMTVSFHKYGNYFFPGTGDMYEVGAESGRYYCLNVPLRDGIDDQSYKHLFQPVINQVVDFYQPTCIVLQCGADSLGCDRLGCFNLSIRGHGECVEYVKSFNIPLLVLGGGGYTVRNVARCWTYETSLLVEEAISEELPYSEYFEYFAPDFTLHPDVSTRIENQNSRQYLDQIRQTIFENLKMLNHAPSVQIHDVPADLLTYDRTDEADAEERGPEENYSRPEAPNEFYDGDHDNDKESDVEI
UniProt Q9UBN7: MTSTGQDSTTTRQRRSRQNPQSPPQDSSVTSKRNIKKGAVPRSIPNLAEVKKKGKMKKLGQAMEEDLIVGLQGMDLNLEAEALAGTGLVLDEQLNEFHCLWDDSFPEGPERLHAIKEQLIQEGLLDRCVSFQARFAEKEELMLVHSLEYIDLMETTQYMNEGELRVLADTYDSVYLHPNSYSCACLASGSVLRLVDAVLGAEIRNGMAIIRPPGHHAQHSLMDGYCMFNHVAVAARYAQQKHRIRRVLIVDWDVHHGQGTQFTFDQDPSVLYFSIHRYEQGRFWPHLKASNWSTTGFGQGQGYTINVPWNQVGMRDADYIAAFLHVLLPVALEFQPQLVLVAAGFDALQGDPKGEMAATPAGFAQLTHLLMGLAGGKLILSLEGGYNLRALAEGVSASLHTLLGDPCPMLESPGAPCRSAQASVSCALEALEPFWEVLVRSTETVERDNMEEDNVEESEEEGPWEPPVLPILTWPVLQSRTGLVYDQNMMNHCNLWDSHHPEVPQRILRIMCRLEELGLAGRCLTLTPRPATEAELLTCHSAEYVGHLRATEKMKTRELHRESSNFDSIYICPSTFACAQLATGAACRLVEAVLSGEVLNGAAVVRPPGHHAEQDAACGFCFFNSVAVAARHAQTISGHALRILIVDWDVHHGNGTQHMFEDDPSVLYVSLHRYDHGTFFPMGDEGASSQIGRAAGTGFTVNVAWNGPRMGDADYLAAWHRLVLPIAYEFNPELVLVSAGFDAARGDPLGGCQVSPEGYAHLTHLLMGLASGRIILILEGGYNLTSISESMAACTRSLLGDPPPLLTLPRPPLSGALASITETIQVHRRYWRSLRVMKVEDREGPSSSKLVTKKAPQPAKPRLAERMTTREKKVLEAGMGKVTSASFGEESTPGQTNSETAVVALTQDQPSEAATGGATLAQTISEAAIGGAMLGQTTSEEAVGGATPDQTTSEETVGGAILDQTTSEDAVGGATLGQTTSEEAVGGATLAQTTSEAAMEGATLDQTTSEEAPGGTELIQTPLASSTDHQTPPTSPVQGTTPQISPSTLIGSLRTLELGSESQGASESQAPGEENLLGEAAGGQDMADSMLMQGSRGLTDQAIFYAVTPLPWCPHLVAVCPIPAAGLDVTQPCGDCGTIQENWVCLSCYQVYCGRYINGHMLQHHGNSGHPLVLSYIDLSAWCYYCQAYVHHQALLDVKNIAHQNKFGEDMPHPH

Assay [2] deals with HDAC6 (Homo sapiens, UniProt Q9UBN7). Particulars: compared with IC50 for HDACs 1-3. How it is done:
as §1

For the compound `CCCCCCCC(=O)SCC/C=C/[C@@H]1CC(=O)NCc2nc(cs2)C2=N[C@@](C)(CS2)C(=O)N[C@@H](C(C)C)C(=O)O1` [Largazole], the half-maximal inhibitory concentration (IC50) (usually the concentration at which inhibition is half-maximal) in assay [1] is less than 20 nM. In addition, the “IC50 HDAC6” value in assay [2] is listed as “much higher”.

Source of the values: patent publication US10538534B2 (Colorado State University Research Foundation, priority 2015, dated 2020).
